Measured values from paper PMC7280191.
These are yes or no findings as the source states them, for the method shown. For some assays here: In cells and extracts the contact can be indirect. Some entries that bind do so weakly or less than the wild type.

By UniProt entry, the sequences of proteins in these tests, tags left out.
UniProt Q9Z0Z7: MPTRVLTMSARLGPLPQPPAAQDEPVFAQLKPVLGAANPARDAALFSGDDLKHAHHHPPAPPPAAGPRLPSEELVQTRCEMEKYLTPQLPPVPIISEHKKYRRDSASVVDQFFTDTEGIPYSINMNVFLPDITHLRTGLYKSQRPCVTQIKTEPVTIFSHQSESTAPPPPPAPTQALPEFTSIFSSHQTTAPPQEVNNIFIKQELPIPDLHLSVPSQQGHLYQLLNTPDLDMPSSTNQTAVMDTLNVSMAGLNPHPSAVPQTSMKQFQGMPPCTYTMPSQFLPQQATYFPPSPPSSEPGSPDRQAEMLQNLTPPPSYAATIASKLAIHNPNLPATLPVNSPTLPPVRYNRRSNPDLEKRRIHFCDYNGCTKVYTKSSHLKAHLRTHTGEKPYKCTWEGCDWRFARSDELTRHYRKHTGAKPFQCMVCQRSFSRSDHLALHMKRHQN

What was measured:
[1] = molecular target: T1, interferon regulatory factor 1 (IRF-1) (mouse (endogenous in MASMCs)) (UniProt P15314); assay: two-step ChIP; formaldehyde cross-linked chromatin, anti-Klf-5 and anti-IRF-1 antibodies, AT2R promoter read by qRT-PCR
T1 sequence: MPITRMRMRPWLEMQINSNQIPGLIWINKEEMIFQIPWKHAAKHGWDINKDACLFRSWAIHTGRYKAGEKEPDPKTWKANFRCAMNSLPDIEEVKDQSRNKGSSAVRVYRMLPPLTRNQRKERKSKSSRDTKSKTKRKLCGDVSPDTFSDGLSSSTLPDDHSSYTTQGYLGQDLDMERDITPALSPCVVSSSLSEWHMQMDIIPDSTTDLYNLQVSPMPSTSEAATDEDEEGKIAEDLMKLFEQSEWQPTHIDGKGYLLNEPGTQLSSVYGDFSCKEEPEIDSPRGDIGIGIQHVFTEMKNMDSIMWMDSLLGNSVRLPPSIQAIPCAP

[2] = molecular target: T1, interferon regulatory factor 1 (IRF-1) (mouse (endogenous in MASMCs)); assay: co-IP; reciprocal: MASMC lysates immunoprecipitated with anti-IRF-1 or anti-Klf-5, protein A-agarose, 4 °C; washed in 50 mM Tris-HCl pH 8.0, 150 mM NaCl, 5 mM EDTA, 0.5% NP-40; blotted with anti-Klf-5 and anti-IRF-1; cells treated with AT1-AA over time (interaction peaked at 45 min)

For Klf-5 (from UniProt Q9Z0Z7 1-446), the binding [1] was “binds” and the binding [2] was “binds”.
